Results reported in patent publication US20260234247A1.
Where a chain is given by its changes, count along the chain named. These are yes or no findings as the source states them, for the method shown. Some results given as binding are weak or reduced against the parent protein; the word gives no strength. Values belong to the binder of their own block, whether it stands above or below them.

By UniProt entry, the sequences of proteins in these tests, tags left out. Residues count along the entry.
UniProt Q8N423, residues 22-597: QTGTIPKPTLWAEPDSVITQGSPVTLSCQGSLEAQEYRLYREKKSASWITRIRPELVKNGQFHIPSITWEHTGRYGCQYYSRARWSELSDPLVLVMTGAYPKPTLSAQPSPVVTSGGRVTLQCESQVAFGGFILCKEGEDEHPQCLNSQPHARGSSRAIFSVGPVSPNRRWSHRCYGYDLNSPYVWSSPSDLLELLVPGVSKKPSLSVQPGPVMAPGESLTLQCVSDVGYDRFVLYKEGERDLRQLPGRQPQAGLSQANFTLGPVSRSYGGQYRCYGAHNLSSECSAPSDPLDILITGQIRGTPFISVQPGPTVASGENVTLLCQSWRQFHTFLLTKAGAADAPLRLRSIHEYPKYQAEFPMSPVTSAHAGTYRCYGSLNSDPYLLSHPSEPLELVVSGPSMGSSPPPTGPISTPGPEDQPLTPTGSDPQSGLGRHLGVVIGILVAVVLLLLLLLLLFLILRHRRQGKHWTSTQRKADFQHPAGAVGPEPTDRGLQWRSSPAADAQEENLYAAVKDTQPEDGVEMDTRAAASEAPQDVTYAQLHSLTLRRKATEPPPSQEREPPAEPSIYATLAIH
UniProt Q8N6C8, residues 24-439: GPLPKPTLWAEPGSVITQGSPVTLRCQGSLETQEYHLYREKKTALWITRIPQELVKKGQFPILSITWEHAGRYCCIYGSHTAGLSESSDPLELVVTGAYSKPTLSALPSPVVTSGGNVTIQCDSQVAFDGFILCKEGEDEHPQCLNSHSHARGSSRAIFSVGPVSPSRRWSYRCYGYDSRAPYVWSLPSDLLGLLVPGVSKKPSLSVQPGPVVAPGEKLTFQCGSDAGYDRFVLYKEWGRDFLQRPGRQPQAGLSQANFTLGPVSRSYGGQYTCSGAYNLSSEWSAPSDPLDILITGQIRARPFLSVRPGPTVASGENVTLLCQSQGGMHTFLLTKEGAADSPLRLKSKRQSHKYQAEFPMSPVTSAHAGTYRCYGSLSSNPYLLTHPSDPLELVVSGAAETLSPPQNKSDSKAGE
UniProt Q8N149, residues 24-449: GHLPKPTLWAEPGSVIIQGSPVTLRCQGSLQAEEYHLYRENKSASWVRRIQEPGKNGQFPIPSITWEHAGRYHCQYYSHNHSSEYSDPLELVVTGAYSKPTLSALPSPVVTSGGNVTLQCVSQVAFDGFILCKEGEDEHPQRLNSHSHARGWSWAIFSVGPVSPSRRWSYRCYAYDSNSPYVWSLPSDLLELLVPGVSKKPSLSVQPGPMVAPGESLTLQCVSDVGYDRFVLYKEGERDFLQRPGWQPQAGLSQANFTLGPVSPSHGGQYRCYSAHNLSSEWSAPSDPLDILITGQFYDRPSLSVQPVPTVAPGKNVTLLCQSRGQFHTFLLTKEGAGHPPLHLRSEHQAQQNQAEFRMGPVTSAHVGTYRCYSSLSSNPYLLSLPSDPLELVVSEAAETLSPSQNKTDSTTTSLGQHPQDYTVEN
UniProt P59901, residues 24-446: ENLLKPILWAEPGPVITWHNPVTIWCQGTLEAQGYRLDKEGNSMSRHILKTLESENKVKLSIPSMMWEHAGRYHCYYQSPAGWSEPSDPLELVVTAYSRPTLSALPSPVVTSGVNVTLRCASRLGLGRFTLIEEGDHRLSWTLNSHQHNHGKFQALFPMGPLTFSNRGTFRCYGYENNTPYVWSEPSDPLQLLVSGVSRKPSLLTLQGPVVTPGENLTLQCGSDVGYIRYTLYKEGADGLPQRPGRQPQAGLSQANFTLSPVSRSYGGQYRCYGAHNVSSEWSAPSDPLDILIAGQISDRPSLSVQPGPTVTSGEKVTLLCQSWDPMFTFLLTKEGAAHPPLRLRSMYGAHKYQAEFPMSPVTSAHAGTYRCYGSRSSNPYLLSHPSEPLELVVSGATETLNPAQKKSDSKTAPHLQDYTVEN
UniProt Q8NHL6, residues 24-458: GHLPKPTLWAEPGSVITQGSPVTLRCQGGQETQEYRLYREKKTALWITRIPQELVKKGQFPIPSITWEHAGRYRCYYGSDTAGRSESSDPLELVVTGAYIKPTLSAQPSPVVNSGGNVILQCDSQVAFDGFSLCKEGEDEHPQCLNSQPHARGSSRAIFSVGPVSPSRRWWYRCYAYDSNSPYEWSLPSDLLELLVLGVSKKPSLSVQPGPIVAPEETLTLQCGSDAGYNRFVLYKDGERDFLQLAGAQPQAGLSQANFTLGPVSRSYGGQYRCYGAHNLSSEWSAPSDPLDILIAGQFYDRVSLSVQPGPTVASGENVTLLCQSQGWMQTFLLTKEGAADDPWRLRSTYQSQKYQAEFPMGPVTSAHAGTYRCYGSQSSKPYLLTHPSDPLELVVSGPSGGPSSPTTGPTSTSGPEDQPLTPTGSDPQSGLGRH
UniProt Q6PI73, residues 24-447: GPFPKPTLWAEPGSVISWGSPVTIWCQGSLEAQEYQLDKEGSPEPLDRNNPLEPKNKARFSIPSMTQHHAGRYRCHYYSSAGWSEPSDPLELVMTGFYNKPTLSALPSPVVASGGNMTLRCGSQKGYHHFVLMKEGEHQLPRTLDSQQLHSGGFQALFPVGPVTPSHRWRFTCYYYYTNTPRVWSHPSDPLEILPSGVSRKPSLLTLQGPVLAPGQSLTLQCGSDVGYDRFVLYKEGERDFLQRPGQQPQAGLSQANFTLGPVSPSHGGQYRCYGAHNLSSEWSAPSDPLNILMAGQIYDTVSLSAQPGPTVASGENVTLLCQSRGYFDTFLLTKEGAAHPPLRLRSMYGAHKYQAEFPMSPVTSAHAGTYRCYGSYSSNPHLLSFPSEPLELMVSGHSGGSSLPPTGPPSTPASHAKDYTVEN

Experiments:
[1] = target: human LILRB2 on CHOK1-human LILRB2 cell line (human) (UniProt Q8N423); test: flow cytometry on CHOK1-human LILRB2 cells (FIGS. 4F-4G)
human LILRA3 (human) = human LILRA3 (human) (UniProt Q8N6C8); test: ELISA, OD450, antibody at 200 nM; + = 2-fold over ISO
human LILRA2 (human) = human LILRA2 (human) (UniProt Q8N149); test: as above
human LILRA4 (human) = human LILRA4 (human) (UniProt P59901); test: as above
[2] = target: human LILRB1 protein (wild type) (human) (UniProt Q8NHL6); test: Octet, dissociation rate ranking
[3] = target: human LILRB1 protein (wild type) (human) (UniProt Q8NHL6); test: ELISA (FIG. 12A)
human LILRA6 (human) = human LILRA6 (human) (UniProt Q6PI73); test: ELISA, OD450, antibody at 200 nM; + = 2-fold over ISO
[4] = target: human LILRB2 on CHOK1-human LILRB2 cell line (human) (UniProt Q8N423); test: flow cytometry (FIG. 5C)
[5] = target: human LILRB2 on CHOK1-human LILRB2 cell line (human) (UniProt Q8N423); test: flow cytometry on CHOK1-human LILRB2 cell line (FIGS. 4F-4G)
[6] = target: human LILRB2 on CHOK1-human LILRB2 cell line (human) (UniProt Q8N423); test: flow cytometry on human LILRB2 cells (FIG. 5C)

binding (human LILRA3 (human)): binds
binding (human LILRA2 (human)): binds
binding (human LILRA4 (human)): binds
B3: LK-RB1-7 (antibody, human IgG4 S228P, kappa, V domains shown)
VH: QIQLVQSGPELKKPGETVKISCKASGYTFTTYGMSWVKQAPGKDLKWMGWINTFSGVPACADDFQGRFDFSAEPSDSTAHLQINNLKNEDTATYFCARRSYYGSRGWYFDVWGTGTTVTVSS
VL: DVQMIQSPSSLSASLGDIVTMTCQASQDTTINLNWFQQKPGKVPKLLIYGASNLEDGVPSRFSGSSFGTDFTLTISSLEDEDMATYFCLQHTYLPRTFGGGTKLEIRR

binding [2]: binds
B4: LK-RB1-9 (antibody, human IgG4 S228P, kappa, V domains shown)
VH: QIQLVQSGPELKKPGETVKISCTASGYTFTTYGMSWVKQAPGKGLKWMGWINTYSGVPTYADDFKGRFAFSLETSASTAYLEINNVKNEDTATYFCARRRRTYHGYLCFDYWGQGTTLTVSS
VL: DIQMTQSPVSLSASVGETVTITCETSENIYGALNWYQRKQGKSPQLLIYGATNLADGMSSRFSGSGSGRQYSLEISSLHPDDVASYYCQNVLNTPWTFGGGTKLEIKR

binding [3]: binds
B5: LK-RB1-9.h1 (antibody, human IgG4, kappa, V domains shown)
VH: QVQLVQSGSELKKPGASVKVSCKASGYTFTTYGMSWVRQAPGQGLEWMGWINTYSGVPTYADDFKGRFVFSLDTSVSTAYLQISSLKAEDTAVYYCARRRRTYHGYLSFDYWGQGTTVTVSS
VL: DIQMTQSPSSLSASVGDRVTITCETSENIYGALNWYQQKPGKAPKLLIYGATNLAEGVPSRFSGSGSGTDFTFTISSLQPEDIATYYCQNVLNTPWTFGGGTKLEIKR

binding [4]: binds
B7: hz73D1.v1 (antibody, human IgG4 S228P, kappa, V domains shown)
VH: QVQLVQSGAEVKKPGASVKVSCKASGYTFTDYYINWVRQAPGQGLEWMGNVNPNDGGTTYNQKFKGRVTMTTDTSTSTAYMELRSLRSDDTAVYYCARREIYFYGTIYYYAMDYWGQGTLVTVSS
VL: DIQLTQSPSFLSASVGDRVTITCRASESVDYYGNSFMYWYQQKPGKAPKLLIYFASNLESGVPSRFSGSGSGTEFTLTISSLQPEDFATYYCQQNNEDPWTFGGGTKVEIKR

binding [5]: binds
binding [1]: binds
B9: LK-RB2-24.h3 (antibody, human IgG4, kappa, V domains shown)
VH: QVQLVQSGSELKKPGASVKVSCKASGYTFTTYGMSWVKQAPGQGLKWMGWLNIYSGVPAYADDFKGRFVFSLDTSASTAYLQISSLKAEDTAVYFCARRENYDGYGMDYWGQGTLVTVSS
VL: EIVLTQSPATLSLSPGERATLSCRASQSISDYLHWYQQKPGQAPRLLIKYASQSISGIPSRFSGSGSGTDFTLTISSLEPEDVAVYYCQNGHSFPYTFGGGTKLEIKR

binding [5]: binds
binding [1]: binds
B10: LK-RB2-24.h2 (antibody, human IgG4, kappa, V domains shown)
VH: B9 VH
VL: B9 VL with V83F

binding [2]: binds
B11: LK-RB2-32 (antibody, human IgG4 S228P, kappa, V domains shown)
VH: DVQLQESGPGLVKPSQSLSLTCSVTGYSITSGYYWNWIRQFPGNKLEWMGYISFDGSNHYNPSLRNRISITRDTFKNQFFLKLNSVTTEDTATFYCTRRDYNWFAYWGQGTLVTVSA
VL: DIVLTQSPVTLSVTPGDSVSLSCRASQNINKNLHWYQQRSHESPRLLIKYVSQSISGIPSRFSGSGSGTDFTLSINSVETEDFGMYFCQQSNSWPLTFGAGTKLELRR

binding [4]: binds
B13: J19.h1 (antibody, human IgG4 S228P, kappa, V domains shown)
VH: QITLKESGPTLVKPTQTLTLTCTFSGFSLNTYAMGVSWIRQPPGKALEWLASIWWNGNKYNNPSLKSRLTVTKDTSKNQVVLTMTNMDPVDTATYYCAHSRIIRFTDYVMDAWGQGTLVTVSS
VL: DIQMTQSPSSLSTSVGDRVTITCRASEDIYNDLAWYQQKPGKAPKLLIYNANSLHTGVASRFSGSGSGTDFTFTISSLQPEDVATYFCQQYYDYPLTFGQGTKLEIKR

binding [5]: binds
binding [1]: binds
B17: LK-RB2-2.h3 (antibody, human IgG4, kappa, V domains shown)
VH: EVQLVESGGGLVKPGGSLRLSCAASGFTFSSYAMSWVRQAPGKGLEWVAYISSGGDYFHYADTVKGRFTISRDNAKNSLYLQMNSLRAEDTAVYYCTREGAHYDSSYLAWFAHWGQGTLVTVSS
VL: DIQMTQSPSSVSASVGDRVTITCRASENIYSNLAWYQQKPGKAPKLLIYAATNLAEGVPSRFSGSGSGTDYTLTISSLQPEDFATYYCQQFWDNPLTFGQGTKLEIKR

The next lines start with the binder.

B1: LK-RB2-2 (antibody, human IgG4 S228P, kappa, V domains shown)
VH: DVKLEESGEGLVKPGGSLKLSCAASGFTFSSYAMSWVRQTPEKRLEWVAYISSGGDYFHYADTVKGRFTISRDNARNTLYLQMSSLKSEDTAMYYCTREGAHYDSSYLAWFAHWGQGTLVTVSA
VL: DIQMTQSPASLSVSVGETVTITCRASENIYSNLAWYQQRQGKSPQLLVYAATNLADGVPSRFSGSGSGTQYSLKINSLQSEDFGSYYCQQFWDNPLTFGAGTKLELKR
binding [1]: binds

B2: LK-RB1-6 (antibody, human IgG4 S228P, kappa, V domains shown)
VH: B3 VH
VL: DIVMTQSHKFMSTSVGDRVSITCTASEDVNTAVAWYQQKPGQSPKLLIYWASTRHTGVPDRFTGSGSGTDYTLTISSVQTEDLALYYCQQHYNTPYTFGGGTKLEIKR
binding (human LILRA3 (human)): binds
binding (human LILRA2 (human)): binds

B6: LK-RB1-5 (antibody, human IgG4 S228P, kappa, V domains shown)
VH: QVQLQQPGAELVKPGASVKLSCKASGYTFTDFWIHWVKQRPGQGLEWIGMIHPNSGSTNFNEKFRAKATLTVDKSSSTAYMRLSSLTSEDSAVYYCARSGDGYSNPMDYWGQGTSVTVSS
VL: QIVLSQSPAILSASPGEKVTLTCRASSSVSYMHWYQQKPGSSPKPWIYATSNLASGVPVRFSGSGSGTSYSLTISRMQTEDAATYYCQQWRRSPYTFGGGTKLEIKR
binding (human LILRA6 (human)): binds

B8: LK-RB2-24.h1 (antibody, human IgG4, kappa, V domains shown)
VH: B9 VH
VL: B9 VL with S60A, V83F
binding [5]: binds
binding [1]: binds

B12: LK-RB1-16.h3 (antibody, human IgG4, kappa, V domains shown)
VH: QVQLQESGPGLVKPSETLSLTCTVSGFSLISNAISWIRQPPGKGLEWLGVIWGDGNTIYHSALRSRLTISKDTSKNQVFLKLSSVTAADTAVYYCAKANWDGYYFDYWGQGTTVTVSS
VL: DIQMTQSPSTLSASVGDRVTITCHASQSVDFWLNWYQQKPGKAPKLLISKASNLHTGVPSRFSGSGSGTEFTLTISSLQPDDFATYYCQQGQSYPLTFGQGTKLEIKR
binding [3]: binds

B14: LK-RB2-24 (antibody, human IgG4 S228P, kappa, V domains shown)
VH: QIQLVQSGPEVKKPGETVKISCKASGYTFTTYGMSWVKQAPGKGLKWMGWLNIYSGVPAYADDFKGRFAFSLESSASTAYLQINNLKNEDTATYFCARRENYDGYGMDYWGQGTSVTVSS
VL: DIVMTQSPATLSVTPGDRVSLSCRASQSISDYLHWYQQKSHESPRLLIKYASQSISGIPSRFSGSGSGSDFTLSINSVEPEDVGVYYCQNGHSFPYTFGGGTKLEIKR
binding [1]: binds
binding [2]: binds

B15: LK-RB2-2.h2 (antibody, human IgG4, kappa, V domains shown)
VH: B17 VH with A49S, T97A
VL: B17 VL with I48V
binding [5]: binds
binding [1]: binds

B16: LK-RB2-2.h1 (antibody, human IgG4, kappa, V domains shown)
VH: B17 VH with A49S, T97A
VL: B17 VL
binding [6]: binds
binding [5]: binds
binding [4]: binds
binding [1]: binds
